Publication PMC9561108
No constants are given. Whether binding was seen depends on the method and setting. In cells and extracts the contact can be indirect. Some results given as binding are weak or reduced against the parent protein; the word gives no strength.

Sequences of proteins named here, by UniProt entry; tags and fusion partners are left off. Residues count along the entry.
UniProt Q08345, residues 19-913: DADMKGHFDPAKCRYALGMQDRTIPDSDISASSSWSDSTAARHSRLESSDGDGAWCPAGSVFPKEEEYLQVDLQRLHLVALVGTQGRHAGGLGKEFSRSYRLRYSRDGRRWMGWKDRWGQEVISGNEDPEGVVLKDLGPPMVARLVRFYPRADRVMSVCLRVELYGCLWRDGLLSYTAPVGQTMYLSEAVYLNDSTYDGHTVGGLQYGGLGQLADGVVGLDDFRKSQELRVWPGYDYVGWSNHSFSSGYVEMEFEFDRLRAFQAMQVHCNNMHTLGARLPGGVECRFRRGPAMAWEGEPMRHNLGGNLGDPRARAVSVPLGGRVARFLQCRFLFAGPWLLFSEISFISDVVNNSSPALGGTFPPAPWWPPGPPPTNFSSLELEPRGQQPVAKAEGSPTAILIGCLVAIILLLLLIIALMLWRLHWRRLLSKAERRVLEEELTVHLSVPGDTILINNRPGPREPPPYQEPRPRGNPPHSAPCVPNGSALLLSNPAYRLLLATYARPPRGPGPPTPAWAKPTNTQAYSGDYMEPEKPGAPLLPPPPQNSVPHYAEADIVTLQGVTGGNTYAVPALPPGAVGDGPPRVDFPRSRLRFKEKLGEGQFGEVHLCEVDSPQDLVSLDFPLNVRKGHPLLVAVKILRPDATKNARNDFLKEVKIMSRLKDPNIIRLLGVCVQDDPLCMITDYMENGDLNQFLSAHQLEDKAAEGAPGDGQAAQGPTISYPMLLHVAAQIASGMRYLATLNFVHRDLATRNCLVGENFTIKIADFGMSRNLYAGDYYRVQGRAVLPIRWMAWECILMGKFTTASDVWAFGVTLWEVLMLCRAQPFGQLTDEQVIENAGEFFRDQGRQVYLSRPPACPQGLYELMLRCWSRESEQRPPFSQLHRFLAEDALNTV

Key:
[1] = target: T1, transmembrane 4 L six family member 1 (TM4SF1) (UniProt P30408); experiment: co-IP; coimmunoprecipitation assays to identify the interaction domain of TM4SF1 (Supplementary Fig. 6a, b); cells and constructs not shown
T1 sequence: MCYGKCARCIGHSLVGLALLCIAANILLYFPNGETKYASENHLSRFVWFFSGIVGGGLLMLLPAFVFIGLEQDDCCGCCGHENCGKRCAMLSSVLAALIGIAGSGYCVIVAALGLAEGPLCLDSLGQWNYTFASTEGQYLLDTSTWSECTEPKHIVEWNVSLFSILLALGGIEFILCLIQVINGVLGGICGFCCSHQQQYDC

[2] = target: T1, transmembrane 4 L six family member 1 (TM4SF1); experiment: co-IP; coimmunoprecipitation of TM4SF1 and DDR1 with monoclonal antibodies against ECL1 of TM4SF1 (Fig. 1t; lysates in Supplementary Fig. S6d); three independent experiments

With “discoidin domain receptor tyrosine kinase 1 (DDR1) (from UniProt Q08345 19-913)” the binding [1] was “binds” and the binding [2] was “binds”.
